Experimental data as given in patent US6506881B1, “Anti-HMFG antibodies and processes for their production” (Celltech R&D Limited, priority 1991, dated 2003).
These are yes or no findings as the source states them, for the method shown. Some results given as binding are weak or reduced against the parent protein; the word gives no strength.

Sequences of proteins named here, by UniProt entry; tags and fusion partners are left off. Residues count along the entry.
UniProt P15941, residues 24-1097: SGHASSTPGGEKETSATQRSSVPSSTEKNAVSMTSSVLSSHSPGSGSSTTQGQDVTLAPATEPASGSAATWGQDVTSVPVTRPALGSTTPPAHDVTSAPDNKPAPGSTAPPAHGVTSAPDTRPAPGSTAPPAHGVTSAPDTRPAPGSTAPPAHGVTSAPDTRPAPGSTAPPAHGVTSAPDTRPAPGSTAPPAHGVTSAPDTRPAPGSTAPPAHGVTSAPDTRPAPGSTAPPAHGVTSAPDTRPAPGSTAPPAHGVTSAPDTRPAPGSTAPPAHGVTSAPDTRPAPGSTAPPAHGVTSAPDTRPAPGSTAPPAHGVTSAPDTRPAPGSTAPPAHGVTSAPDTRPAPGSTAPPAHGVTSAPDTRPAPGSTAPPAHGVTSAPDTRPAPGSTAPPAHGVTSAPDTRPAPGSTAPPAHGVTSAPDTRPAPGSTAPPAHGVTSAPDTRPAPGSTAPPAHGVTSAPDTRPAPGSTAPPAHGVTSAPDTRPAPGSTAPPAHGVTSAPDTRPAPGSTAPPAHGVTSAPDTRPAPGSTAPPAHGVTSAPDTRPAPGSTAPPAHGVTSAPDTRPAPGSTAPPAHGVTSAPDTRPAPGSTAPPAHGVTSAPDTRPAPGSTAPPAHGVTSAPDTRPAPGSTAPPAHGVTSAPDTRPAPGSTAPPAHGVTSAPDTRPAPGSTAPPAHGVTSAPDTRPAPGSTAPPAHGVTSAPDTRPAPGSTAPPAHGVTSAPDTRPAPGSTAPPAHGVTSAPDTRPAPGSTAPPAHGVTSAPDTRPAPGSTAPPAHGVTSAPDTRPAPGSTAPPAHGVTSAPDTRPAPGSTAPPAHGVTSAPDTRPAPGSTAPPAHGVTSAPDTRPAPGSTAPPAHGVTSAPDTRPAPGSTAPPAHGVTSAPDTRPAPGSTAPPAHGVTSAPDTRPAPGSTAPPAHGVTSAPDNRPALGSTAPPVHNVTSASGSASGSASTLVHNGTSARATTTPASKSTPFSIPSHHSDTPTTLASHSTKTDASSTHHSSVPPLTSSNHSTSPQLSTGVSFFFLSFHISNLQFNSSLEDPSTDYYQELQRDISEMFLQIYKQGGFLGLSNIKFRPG

Experiments:
[1] = biological target: polymorphic epithelial mucin (PEM) of human milk fat globule, affinity-purified on a CTM01 MAb column from pooled human urine or the aqueous component of human milk (human) (UniProt P15941); experiment: competition EIA, PEM-coated microwells, biotinylated CTM01 MAb as competitor
[2] = biological target: polymorphic epithelial mucin (PEM) of human milk fat globule, affinity-purified on a CTM01 MAb column from pooled human urine or the aqueous component of human milk (human) (UniProt P15941); experiment: direct binding ELISA, PEM-coated microwells, order of binding activity

Binder	binding [1]	binding [2]
gL1gH2, CDR-grafted CTMO1 antibody (plasmids pAL47, pAL52) (antibody, V domains shown) VH: QIQLVQSGAEVKKPGSSVKVSCKASGYTFTDYYINWMRQAPGQGLEWIGWIDPGSGNTKYNEKFKGRATLTVDTSTNTAYMELSSLRSEDTAFYFCAREKTTYYYAMDYWGQGTLVTVSS VL: DIQMTQSPSTLSASVGDRVTITCRSSKSLLHSNGDTFLYWFQQKPGKAPKLLMYRMSNLASGVPSRFSGSGSGTEFTLTISSLQPDDFATYYCMQHLEYPFTFGQGTKVEVKR	binds	binds
gL1gH1, CDR-grafted CTMO1 antibody (plasmids pAL47, pAL51) (antibody, V domains shown) VH: QIQLVQSGAEVKKPGSSVKVSCKASGYTFTDYYINWMRQAPGQGLEWMGWIDPGSGNTKYNEKFKGRVTITVDTSTNTAYMELSSLRSEDTAFYFCAREKTTYYYAMDYWGQGTLVTVSS VL: DIQMTQSPSTLSASVGDRVTITCRSSKSLLHSNGDTFLYWFQQKPGKAPKLLMYRMSNLASGVPSRFSGSGSGTEFTLTISSLQPDDFATYYCMQHLEYPFTFGQGTKVEVKR	–	binds
